Data on 34 molecules can be found in the supplement of paper PMC8326762, “A Small Molecule Inhibitor of Pex3–Pex19 Interaction Disrupts Glycosome Biogenesis and Causes Lethality in Trypanosoma brucei” (Frontiers in Cell and Developmental Biology, 2021).

Structures are written as SMILES. Counter-ions that a name gives are not always drawn. Some of the results follow. Single values of this set are uncertain.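 Yeast growth was read as optical density at 600 nm. The two-hybrid strains grew without histidine, so growth needed the Pex3–Pex19 binding; a compound counted as trypanosome-selective if it cut growth of the trypanosome-pair strain by more than 65% and the human-pair strain by less than 65%.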

The first test has as its system Saccharomyces cerevisiae HF7c pdr5Δ. The test is described as follows: general growth inhibition of yeast HF7c pdr5Δ in -Leu -Trp medium, relative to DMSO; higher = stronger general growth inhibition. The note with it: 100 µM; 24 h.
Molecule `CC(=O)[C@H]1CC[C@H]2[C@@H]3CC[C@H]4C[C@](C)(O)CC[C@]4(C)[C@H]3CC[C@]12C` [Ganaxolone] gave a general growth inhibition of 34.4%.
Same read-out and setting: the same measure for `OCc1cnc[nH]1` [4-Imidazolemethanol hydrochloride]: 40.4%; for `O=[N+]([O-])c1cc(O)c(O)c([N+](=O)[O-])c1` [3,5-Dinitrocatechol]: 17.7%.

The test system of the next test is human PEX3-PEX19 interaction (yeast two-hybrid). The test is described as follows: growth inhibition of yeast two-hybrid strain reporting HsPex3-HsPex19 interaction, relative to DMSO; higher = stronger inhibition of human Pex3-Pex19 interaction / growth. The note with it: 100 µM; 24 h; 3-aminotriazole 10 mM.
On to `CC(C)(C)OC(=O)NC1[C@H]2CNC[C@@H]12` (some centres undefined), for which the growth inhibition worked out at 44.6%.
The same measure, in the same setting: the figure for `c1ccc2c(N3CCNCC3)cccc2c1` [1-(1-Naphthyl)piperazine hydrochloride] is 50.4%.
As to `CCCN1CCC[C@@H]2Cc3nc(N)ncc3C[C@H]21` [Quinelorane dihydrochloride], the growth inhibition was -4.37%.
The same measure, in the same setting: the figure for `CCCCCCCCCCCCCC(=O)O[C@@H]1[C@@H](C)[C@@]2(O)[C@@H](C=C(CO)C[C@]3(O)C(=O)C(C)=C[C@@H]23)[C@@H]2C(C)(C)[C@]12OC(C)=O` [Phorbol 12-myristate 13-acetate] is 27.7%; for `CN1CCc2cccc(Cl)c2CC1` it is 45.2%.
For the molecule `CC[C@@H](CO)NC(=O)[C@@H]1C=C2c3cccc4c3c(cn4C)C[C@H]2N(C)C1` [Methysergide maleate], the growth inhibition stood at 45.7%.
In the case of `CCCN1CCc2cccc3c2[C@H]1Cc1ccc(O)c(O)c1-3` [R(-)-Propylnorapomorphine hydrochloride], the growth inhibition is 30%.
Still for that read-out and setting: the same measure for `Cc1nccc2c1[nH]c1ccccc12` [Harmane]: 15.6%; for `Cc1cc([C@@H]2CCCN2C)on1` [ABT-418 hydrochloride]: 26.4%; for `CCCN1CCc2cc(O)cc3c2[C@H]1Cc1ccc(O)c(O)c1-3` [R(-)-2,10,11-Trihydroxy-N-propylnoraporphine hydrobromide]: 31%.
The same measure, in the same setting: the figure for `CC[C@@H](CO)NC(=O)[C@@H]1C=C2c3cccc4[nH]cc(c34)C[C@H]2N(C)C1` [Methylergonovine maleate] is 30.9%.
As for `NC(=O)c1cc(N2CC2)c([N+](=O)[O-])cc1[N+](=O)[O-]`, the growth inhibition worked out at 42.7%.
The same measure, in the same setting: the figure for `NC(=O)CN1CC(O)CC1=O` (centres undefined) [Oxiracetam] is 56.7%; for `CN1[C@@H]2CC[C@H]1C[C@@H](OC(c1ccccc1)c1ccccc1N)C2` (some centres undefined) [Aminobenztropine] it is 39.1%; for `NC(N)=NOCC[C@H](N)C(=O)O` [L-Canavanine sulfate] it is 8.18%.
The same measure, in the same setting: the same measure for `C=C(C)[C@@H]1[C@H]2OC(=O)[C@@H]1[C@]1(O)C[C@H]3OC34C(=O)O[C@H]2[C@@]41C.CC(C)(O)[C@@H]1[C@H]2OC(=O)[C@@H]1[C@]1(O)C[C@H]3OC34C(=O)O[C@H]2[C@@]41C` (some centres undefined) [Picrotoxin]: 51.9%; for `O=[N+]([O-])c1ccc2nc(N3CCNCC3)ccc2c1` [Quipazine, 6-nitro-, maleate]: 52.3%; for `C=CCN1CC[C@]23CCCC[C@H]2[C@H]1Cc1ccc(O)cc13` [Levallorphan tartrate]: 38.8%.
The same measure, in the same setting: the figure for `CNc1ccc2oc(C[C@H]3O[C@@]4(CC[C@H]3C)O[C@H]([C@H](C)C(=O)c3ccc[nH]3)[C@H](C)C[C@H]4C)nc2c1C(=O)O` [Calcimycin] is 49.6%.
Take `CCCC[N+]1(C)[C@@H]2C[C@@H](OC(=O)[C@H](CO)c3ccccc3)C[C@H]1[C@@H]1O[C@@H]12` (single isomer, unassigned; (-)) [(-)-Scopolamine,n-Butyl-, bromide]: the growth inhibition worked out at 49.6%.
As to `CC(N)Cc1c[nH]c2ccc(OCc3cccs3)cc12` (centres undefined), the growth inhibition stood at 36.3%.
Still for that read-out and setting: the same measure for `c1ccc2c(c1)OCC(C1=NCCN1)O2` (centres undefined) [Idazoxan hydrochloride]: 45.9%; for `CCCN1CCC[C@@H]2Cc3n[nH]cc3C[C@H]21` [(-)-Quinpirole hydrochloride]: 47.7%; for `CC(C)N(CCC(C(N)=O)(c1ccccc1)c1ccccn1)C(C)C` (centres undefined) [Disopyramide]: 11%.
The same measure, in the same setting: the figure for `O=C1CCCN1CC#CCN1CCCC1` [Oxotremorine sesquifumarate salt] is 50.3%; for `CCCN(CCC)C1Cc2cc(OC)c(OC)cc2C1` it is 45.4%.
With `NC(N)=NOCC[C@H](N)C(=O)O` [L-Canavanine], the growth inhibition was 29.1%.
`NCC(O)c1ccc(O)cc1` (racemic) [(±)-Octopamine hydrochloride]: the growth inhibition was determined as 53.6%.
Turning to `CN(C)C(=O)Oc1cccc([N+](C)(C)C)c1` [Neostigmine bromide], the growth inhibition amounted to 49.5%.
With `CC(N)Cc1c[nH]c2ccc(O)cc12` (stereo not drawn) [alpha-Methyl-5-hydroxytryptamine maleate], the growth inhibition is 45.7%.
For `NCCCNCCSP(=O)(O)O` [Amifostine], the growth inhibition was found to be 47.9%.
